Numbering of substitutions follows the chain as printed. In names and notes the source's numbering stands. These are yes or no findings as the source states them, for the method shown. Some entries that bind do so weakly or less than the wild type.
How the values were obtained:
[1] = target: T1, human TL1A (Fitzgerald, Prod. #30R-AT070) (human) (UniProt O95150); experiment: ELISA, both formats (immobilised TL1A; captured Fab with soluble biotinylated TL1A)
T1 sequence (biotinylated with EZ-Link Sulfo-NHS-LC-Biotin where used as soluble antigen, looked up): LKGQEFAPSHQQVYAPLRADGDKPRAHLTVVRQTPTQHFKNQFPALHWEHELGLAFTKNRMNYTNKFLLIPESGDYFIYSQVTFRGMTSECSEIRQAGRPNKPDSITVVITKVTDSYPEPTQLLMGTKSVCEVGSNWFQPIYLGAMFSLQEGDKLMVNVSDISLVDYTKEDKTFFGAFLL

[2] = target: membrane-associated human TL1A on transfected HEK293 cells (human) (UniProt O95150); experiment: flow cytometry, HEK293 cells expressing human TL1A, Fab
[3] = target: T1, human TL1A (Fitzgerald, Prod. #30R-AT070) (human); experiment: ELISA on antigen coated plates and ELISA capture of soluble biotinylated antigen
[4] = target: T2, TL1A used in the epitope binning studies (UniProt O95150); experiment: SPR array epitope binning, pre-mix
T2 sequence (looked up): T1 sequence (biotinylated with EZ-Link Sulfo-NHS-LC-Biotin where used as soluble antigen, looked up)

[5] = target: T1, human TL1A (Fitzgerald, Prod. #30R-AT070) (human); experiment: ELISA, IgG format
[6] = target: T1, human TL1A (Fitzgerald, Prod. #30R-AT070) (human); experiment: capture lift screen and Fab ELISA on immobilised antigen
[7] = target: T1, human TL1A (Fitzgerald, Prod. #30R-AT070) (human); experiment: ELISA
[8] = target: T1, human TL1A (Fitzgerald, Prod. #30R-AT070) (human); experiment: ELISA, captured Fab, soluble biotinylated antigen
[9] = target: T1, human TL1A (Fitzgerald, Prod. #30R-AT070) (human); experiment: Fab ELISA on immobilised antigen

B1: Clone X Fab (Fab, V domains shown)
VH: QVQLVQSGAEVKKPGASVKVSCKASGFDIQDTYMHWVRQAPGQGLEWMGRIDPASGHTKYDPKFQGRATITTDTSASTAYLQLSSLRSEDTAVYYCARSGGLPDFWGQGTTVTVSS
VL: EIVLTQSPGTLSLSPGERATLSCRASSSVSYMYWYQQKPGQAPRLLIYATSNLASGIPDRFSGSGSGTDFTLTISRLEPEDFAVYYCQQWSGNPRTFGGGTKLEIK
[1]
  binding: binds
[2]
  binding: binds

B2: Clone 34 IgG2 (antibody)
heavy: QVQLVQSGAEVKKPGASVKVSCKASGFDIQDTYMHWVRQAPGQGLEWMGRIEPASGHIKYDPKFQGRVTMTRDTSTSTVYMELSSLRSEDTAVYYCARSGGLPDWWGQGTTVTVSSASTKGPSVFPLAPCSRSTSESTAALGCLVKDYFPEPVTVSWNSGALTSGVHTFPAVLQSSGLYSLSSVVTVPSSNFGTQTYTCNVDHKPSNTKVDKTVERKCCVECPPCPAPPVAGPSVFLFPPKPKDTLMISRTPEVTCVVVDVSHEDPEVQFNWYVDGVEVHNAKTKPREEQFNSTFRVVSVLTVVHQDWLNGKEYKCKVSNKGLPAPIEKTISKTKGQPREPQVYTLPPSREEMTKNQVSLTCLVKGFYPSDIAVEWESNGQPENNYKTTPPMLDSDGSFFLYSKLTVDKSRWQQGNVFSCSVMHEALHNHYTQKSLSLSPGK
light: EIVLTQSPGTLSLSPGERATLSCRASSSVSYMYWYQQKPGQAPRLLIYATSNLASGIPDRFSGSGSGTDFTLTISRLEPEDFAVYYCQQWEGNPRTFGGGTKLEIKRTVAAPSVFIFPPSDEQLKSGTASVVCLLNNFYPREAKVQWKVDNALQSGNSQESVTEQDSKDSTYSLSSTLTLSKADYEKHKVYACEVTHQGLSSPVTKSFNRGEC
[3]
  binding: binds

B3: Clone 47 IgG2 (antibody)
heavy: B2 heavy with I58V, G66T
light: B2 light
[3]
  binding: binds

B4: Clone 14 IgG2 (antibody)
heavy: B2 heavy with E52D, G66K, W105M
light: B2 light with E91Q
[3]
  binding: binds

B5: Clone 17L IgG2 (antibody)
heavy: B2 heavy with E52D, I58L, G66V, W105M
light: B2 light with E91Q
[3]
  binding: binds

B6: Clone 23 IgG2 (antibody)
heavy: B2 heavy with E52D, I58L, G66N, W105K
light: B2 light
[3]
  binding: binds

B7: Clone 53 IgG2 (antibody)
heavy: B2 heavy with I58L, G66E, W105K
light: B2 light
[3]
  binding: binds

B8: murine mAb 5C3D11 (antibody, V domains shown)
VH: EVQLQQSGAELVKPGASVKLSCTASGFDIQDTYMHWVKQRPEQGLEWIGRIDPASGHTKYDPKFQVKATITTDTSSNTAYLQLSSLTSEDTAVYYCSRSGGLPDVWGAGTTVTVSS
VL: QIVLSQSPAILSASPGEKVTMTCRASSSVSYMYWYQQKPGSSPKPWIYATSNLASGVPDRFSGSGSGTSYSLTISRVEAEDAATYYCQQWSGNPRTFGGGTKLEIK
[4]
  binding: binds
[5]
  binding: binds

B9: humanized 12835 antibody (antibody, V domains shown)
VH: B1 VH with V20L, G66V, A68V, I70M, A76T, A79V, L81M, Q82E, A97S, F105V
VL: B1 VL with A19V, L21M, L45P, L46W, I57V, F70Y
[4]
  binding: binds
[5]
  binding: binds

B10: 1681 (antibody, V domains shown)
VH: EVQLLESGGGLVQPGKSLRLSCAVSGFTFSTYGMNWVRQAPGKGLEWVSSISGTGRTTYHADSVQGRFTVSRDNSKNILYLQMNSLRADDTAVYFCTKERGDYYYGVFDYWGQGTLVTVSS
VL: DIQMTQSPSTLSASVGDRVTITCRASQTISSWLAWYQQTPEKAPKLLIYAASNLQSGVPSRFSGSGSGTEFTLTISSLQPDDFATYYCQQYHRSWTFGQGTKVEIT
[4]
  binding: binds

B11: 1A9 (antibody, V domains shown)
VH: QIQLVQSGPELKKPGETVKISCKASGYTFTTYGMSWVKQAPGKGLKWMGWMNTYSGVTTYADDFKGRFAFSLETSASTAYMQIDNLKNEDTATYFCAREGYVFDDYYATDYWGQGTSVTVSS
VL: DVLMTQTPLSLPVSLGDQASISCRSSQNIVHSDGNTYLEWYLQKPGQSPKLLIYKVSNRFSGVPDRFSGSGSGTDFTLKISRVEAEDLGIYYCFQGSHVPLTFGAGTKLELK
[4]
  binding: binds

B12: clone 19 Fab (Fab, V domains shown)
VH: B1 VH with V20L, G66V, A68V, I70M, A76T, A79V, L81M, Q82E, A97S, F105V
VL: B1 VL with F70Y
[6]
  binding: binds

B13: clone 16-2 Fab (Fab, V domains shown)
VH: QVQLVQSGAEVKKPGASVKLSCKASGFDIQDTYMHWVRQAPGQGLEWMGRIDPASGHTKYDPKFQVRVTMTRDTSTSTVYMELSSLRSEDTAVYYCSRSGGLPDVWGQGTTVTVSS
VL: B1 VL with F70Y
[6]
  binding: binds

B14: clone 17-2 Fab (Fab, V domains shown)
VH: B13 VH
VL: B1 VL with I57V
[6]
  binding: binds

B15: 18-7 (CDR-grafted LC) Fab (Fab, V domains shown)
VH: B13 VH
VL: B1 VL
[7]
  binding: binds
[6]
  binding: binds
[8]
  binding: binds

B16: clone 19-5 Fab (Fab, V domains shown)
VH: B13 VH with L20V
VL: B1 VL with I57V, F70Y
[6]
  binding: binds

B17: clone 20-7 Fab (Fab, V domains shown)
VH: B13 VH with S97A
VL: B1 VL with I57V, F70Y
[6]
  binding: binds

B18: 21-3 (CDR-grafted HC) Fab (Fab, V domains shown)
VH: B13 VH with L20V, S97A
VL: B1 VL with I57V, F70Y
[7]
  binding: binds
[6]
  binding: binds
[8]
  binding: binds

B19: L8 (CDR graft) Fab (Fab, V domains shown)
VH: B13 VH with L20V, S97A
VL: B1 VL
[7]
  binding: binds
[9]
  binding: binds
[8]
  binding: binds

B20: H3-7 (V102M) Fab (Fab, V domains shown)
VH: B13 VH with L20V, S97A, V105M
VL: B1 VL
[7]
  binding: binds

B21: H3-7 (V102K) Fab (Fab, V domains shown)
VH: B13 VH with L20V, S97A, V105K
VL: B1 VL
[7]
  binding: binds

B22: H3-7 (V102Q) Fab (Fab, V domains shown)
VH: B13 VH with L20V, S97A, V105Q
VL: B1 VL
[7]
  binding: binds

B23: H3-7 (V102W) Fab (Fab, V domains shown)
VH: B13 VH with L20V, S97A, V105W
VL: B1 VL
[7]
  binding: binds

B24: L3-4 (S92D) Fab (Fab, V domains shown)
VH: B13 VH with L20V, S97A
VL: B1 VL with S91D
[7]
  binding: binds

B25: L3-4 (S92E) Fab (Fab, V domains shown)
VH: B13 VH with L20V, S97A
VL: B1 VL with S91E
[7]
  binding: binds

B26: L3-4 (S92H) Fab (Fab, V domains shown)
VH: B13 VH with L20V, S97A
VL: B1 VL with S91H
[7]
  binding: binds

B27: L3-4 (S92N) Fab (Fab, V domains shown)
VH: B13 VH with L20V, S97A
VL: B1 VL with S91N
[7]
  binding: binds

B28: L3-4 (S92Q) Fab (Fab, V domains shown)
VH: B13 VH with L20V, S97A
VL: B1 VL with S91Q
[7]
  binding: binds

From US20230192835A1
